Data as given in PubChem BioAssay AID504804 (Drosophila RNAi Screening Center, 2011)
Aim: 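Knock-downs shielding fly cells from apoptosis caused by DNA damage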 (primary screen). Cells: Drosophila Kc cells. Reagent: long dsRNA against Drosophila genes, 0.5 µg dsRNA per well. Timing: 96 h (48 h knock-down, then 48 h drug). Challenge: doxorubicin 5 µg/ml for 48 h, added 48 h after dsRNA. Measured: 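Luminescent ATP counts per replicate, not normalised, reflecting viable cells after 48 h dsRNA knock-down followed by 48 h of 5 µg/ml doxorubicin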. Direction: raw ATP luminescence: higher = more viable cells, protection from doxorubicin. Rule for the call: 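z-score of 2 or more over plate mean in both duplicates, retained only when retests and separate dsRNAs confirm the protection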.
The deposit covers about 19,000 reagents; this is a random part of those that have a named target and a result. Over the whole deposit, 47 (0.25%) are marked active. 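Signals are raw, not normalised; exact z-scores behind calls not deposited; actives needed confirmation, so some wells reaching 2 SD are inactive.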 A number with no mark means an inactive call. A plus sign joins genes that one reagent is predicted to hit.

For CG13288 (GeneID 38665) [DRSC09962], the values are raw ATP luminescence, replicate 1 = 53460; raw ATP luminescence, replicate 2 = 78063. After knock-down of Polr2F (GeneID 48312) [DRSC12366] the results were raw ATP luminescence, replicate 1 = 48330; raw ATP luminescence, replicate 2 = 46453. With knock-down of lilli (GeneID 33496) [DRSC00708], the screen gave raw ATP luminescence, replicate 1 = 1.48e5; raw ATP luminescence, replicate 2 = 93680. LS2 (GeneID 37681) [DRSC04340] scored raw ATP luminescence, replicate 1 = 36037; raw ATP luminescence, replicate 2 = 46743. Depletion of Ubc2 (GeneID 34487) [DRSC01137] came out at: raw ATP luminescence, replicate 1 = 2.84e5; raw ATP luminescence, replicate 2 = 3.00e5. Against Ubc2 (GeneID 34487) [DRSC03468], the entry reads raw ATP luminescence, replicate 1 = 40547; raw ATP luminescence, replicate 2 = 64320.

After knock-down of CG15262 (GeneID 34901) [DRSC01975], the screen gave raw ATP luminescence, replicate 1 = 58383; raw ATP luminescence, replicate 2 = 67797. Blm + CG14721 [DRSC14943] showed raw ATP luminescence, replicate 1 = 53800; raw ATP luminescence, replicate 2 = 55373. Knock-down of CG3335 (GeneID 39119) [DRSC10358] resulted in: raw ATP luminescence, replicate 1 = 79573; raw ATP luminescence, replicate 2 = 70463. Silencing of CG11726 (GeneID 39275) [DRSC09858] gave: raw ATP luminescence, replicate 1 = 69787; raw ATP luminescence, replicate 2 = 57307. For Klf15 (GeneID 31410) [DRSC17742] the deposit lists raw ATP luminescence, replicate 1 = 39230; raw ATP luminescence, replicate 2 = 40100. COX2 (retired record) (GeneID 192470) [DRSC21276] scored raw ATP luminescence, replicate 1 = 3.49e5; raw ATP luminescence, replicate 2 = 2.82e5.

Not a retest: 2 of the entries above.
Ubc2 (GeneID 34487) [DRSC01137] → raw ATP luminescence, replicate 1 = 2.84e5; raw ATP luminescence, replicate 2 = 3.00e5
Ubc2 (GeneID 34487) [DRSC03468] → raw ATP luminescence, replicate 1 = 40547; raw ATP luminescence, replicate 2 = 64320
